Results: the supplement of paper PMC8728848
This is one part of the list.

Experiments:
Assay in all cases: glycan array binding signal (z-score within array); higher = stronger binding
Conditions in all cases: glycan notation: IUPAC condensed, linker removed
[1] = target: Neu5Ac(a2-3)Gal(b1-4)GlcNAc(b1-3)Gal
Summary of the method: (§1)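 Arrays were curated from the Consortium for Functional Glycomics database, 3228 in total, and kept only where the protein sequence was available. Binding is expressed as a within-array Z-score. This score was averaged across arrays of the same protein sequence at different concentrations or buffers and across linkers, and negative values can be read as non-binding.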

[2] = target: Neu5Ac(a2-3)Gal(b1-4)GlcNAc(b1-3)Gal(b1-3)GlcNAc
Summary of the method: as §1

[3] = target: Neu5Ac(a2-3)Gal(b1-4)GlcNAc(b1-3)Gal(b1-4)GlcNAc
Summary of the method: as §1

[4] = target: Neu5Ac(a2-3)Gal(b1-4)GlcNAc(b1-3)Gal(b1-4)GlcNAc(b1-3)Gal(b1-4)GlcNAc
Summary of the method: as §1

[5] = target: Neu5Ac(a2-3)Gal(b1-4)GlcNAc(b1-3)Gal(b1-4)[Fuc(a1-3)]GlcNAc
Summary of the method: as §1

[6] = target: Neu5Ac(a2-3)Gal(b1-4)GlcNAc(b1-3)GalNAc
Summary of the method: as §1

[7] = target: Neu5Ac(a2-3)Gal(b1-4)GlcNAc(b1-6)[Gal(b1-3)]GalNAc
Summary of the method: as §1

[8] = target: Neu5Ac(a2-3)Gal(b1-4)GlcNAc(b1-6)[Neu5Ac(a2-3)Gal(b1-3)]GalNAc
Summary of the method: as §1

[9] = target: Neu5Ac(a2-3)Gal(b1-4)GlcNAc6S
Summary of the method: as §1

[10] = target: Neu5Ac(a2-3)Gal(b1-4)[Fuc(a1-3)]GlcNAc
Summary of the method: as §1

[11] = target: Neu5Ac(a2-3)Gal(b1-4)[Fuc(a1-3)]GlcNAc(b1-3)Gal
Summary of the method: as §1

[12] = target: Neu5Ac(a2-3)Gal(b1-4)[Fuc(a1-3)]GlcNAc(b1-3)Gal(b1-4)GlcNAc
Summary of the method: as §1

[13] = target: Neu5Ac(a2-3)Gal(b1-4)[Fuc(a1-3)]GlcNAc(b1-3)Gal(b1-4)[Fuc(a1-3)]GlcNAc(b1-3)Gal(b1-4)[Fuc(a1-3)]GlcNAc
Summary of the method: as §1

[14] = target: Neu5Ac(a2-3)Gal(b1-4)[Fuc(a1-3)]GlcNAc(b1-3)GalNAc
Summary of the method: as §1

[15] = target: Neu5Ac(a2-3)Gal(b1-4)[Fuc(a1-3)]GlcNAc(b1-6)[Gal(b1-3)]GalNAc
Summary of the method: as §1

[16] = target: Neu5Ac(a2-3)Gal(b1-4)[Fuc(a1-3)]GlcNAc6S
Summary of the method: as §1

[17] = target: Neu5Ac(a2-3)Gal6S(b1-4)GlcNAc
Summary of the method: as §1

[18] = target: Neu5Ac(a2-3)Gal6S(b1-4)[Fuc(a1-3)]GlcNAc
Summary of the method: as §1

Neu5Ac(a2-3)GalNAc = target: Neu5Ac(a2-3)GalNAc
Summary of the method: as §1

[19] = target: Neu5Ac(a2-3)GalNAc(b1-4)GlcNAc
Summary of the method: as §1

[20] = target: Neu5Ac(a2-3)[GalNAc(b1-4)]Gal(b1-4)Glc
Summary of the method: as §1

[21] = target: Neu5Ac(a2-3)[GalNAc(b1-4)]Gal(b1-4)GlcNAc
Summary of the method: as §1

[22] = target: Neu5Ac(a2-3)[GalNAc(b1-4)]Gal(b1-4)GlcNAc(b1-3)GalNAc
Summary of the method: as §1

[23] = target: Neu5Ac(a2-3)[Neu5Ac(a2-6)]GalNAc
Summary of the method: as §1

Neu5Ac(a2-6)Gal = target: Neu5Ac(a2-6)Gal
Summary of the method: as §1

[24] = target: Neu5Ac(a2-6)Gal(b1-3)GlcNAc(b1-3)[Gal(b1-4)GlcNAc(b1-6)]Gal(b1-4)Glc
Summary of the method: as §1

Neu5Ac(a2-6)Gal(b1-4)Glc = target: Neu5Ac(a2-6)Gal(b1-4)Glc
Summary of the method: as §1

[25] = target: Neu5Ac(a2-6)Gal(b1-4)GlcNAc
Summary of the method: as §1

[26] = target: Neu5Ac(a2-6)Gal(b1-4)GlcNAc(b1-2)Man(a1-3)Man(b1-4)GlcNAc(b1-4)GlcNAc
Summary of the method: as §1

[27] = target: Neu5Ac(a2-6)Gal(b1-4)GlcNAc(b1-2)Man(a1-3)[Gal(b1-4)GlcNAc(b1-2)Man(a1-6)]Man(b1-4)GlcNAc(b1-4)GlcNAc
Summary of the method: as §1

[28] = target: Neu5Ac(a2-6)Gal(b1-4)GlcNAc(b1-2)Man(a1-3)[GlcNAc(b1-2)Man(a1-6)]Man(b1-4)GlcNAc(b1-4)GlcNAc
Summary of the method: as §1

[29] = target: Neu5Ac(a2-6)Gal(b1-4)GlcNAc(b1-2)Man(a1-3)[GlcNAc(b1-2)Man(b1-4)GlcNAc(b1-2)Man(a1-6)]Man(b1-4)GlcNAc(b1-4)GlcNAc
Summary of the method: as §1

[30] = target: Neu5Ac(a2-6)Gal(b1-4)GlcNAc(b1-2)Man(a1-3)[Man(a1-6)]Man(b1-4)GlcNAc(b1-4)GlcNAc
Summary of the method: as §1

[31] = target: Neu5Ac(a2-6)Gal(b1-4)GlcNAc(b1-2)Man(a1-3)[Neu5Ac(a2-6)Gal(b1-4)GlcNAc(b1-2)Man(a1-6)]Man(b1-4)GlcNAc(b1-4)GlcNAc
Summary of the method: as §1

[32] = target: Neu5Ac(a2-6)Gal(b1-4)GlcNAc(b1-2)Man(a1-6)Man(b1-4)GlcNAc(b1-4)GlcNAc
Summary of the method: as §1

B1: Intelectin 1 (Homo sapiens), Q8WWA0 (protein)
chain: MNQLSFLLFLIATTRGWSTDEANTYFKEWTCSSSPSLPRSCKEIKDECPSAFDGLYFLRTENGVIYQTFCDMTSGGGGWTLVASVHENDMRGKCTVGDRWSSQQGSKAVYPEGDGNWANYNTFGSAEAATSDDYKNPGYYDIQAKDLGIWHVPNKSPMQHWRNSSLLRYRTDTGFLQTLGHNLFGIYQKYPVKYGEGKCWTDNGPVIPVVYDFGDAQKTASYYSPYGQREFTAGFVQFRVFNNERAANALCAGMRVTGCNTEHHCIGGGGYFPEASPQQCGDFSGFDWSGYGTHVGYSSSREITEAAVLLFYR
- glycan array binding signal (z-score) [1]: -0.508
- glycan array binding signal (z-score) [2]: -0.324
- glycan array binding signal (z-score) [3]: -0.554
- glycan array binding signal (z-score) [4]: -0.177
- glycan array binding signal (z-score) [5]: 0.691
- glycan array binding signal (z-score) [6]: -0.216
- glycan array binding signal (z-score) [7]: 0.281
- glycan array binding signal (z-score) [8]: -0.416
- glycan array binding signal (z-score) [9]: 0.039
- glycan array binding signal (z-score) [10]: -1.07
- glycan array binding signal (z-score) [11]: -0.21
- glycan array binding signal (z-score) [12]: 1.27
- glycan array binding signal (z-score) [13]: -0.349
- glycan array binding signal (z-score) [14]: 0.108
- glycan array binding signal (z-score) [15]: 1.07
- glycan array binding signal (z-score) [16]: -0.05
- glycan array binding signal (z-score) [17]: -0.326
- glycan array binding signal (z-score) [18]: -0.264
- glycan array binding signal (z-score) (Neu5Ac(a2-3)GalNAc): -0.268
- glycan array binding signal (z-score) [19]: 0.042
- glycan array binding signal (z-score) [20]: 0
- glycan array binding signal (z-score) [21]: -0.14
- glycan array binding signal (z-score) [22]: -0.316
- glycan array binding signal (z-score) [23]: -0.046
- glycan array binding signal (z-score) (Neu5Ac(a2-6)Gal): -0.004
- glycan array binding signal (z-score) [24]: -0.516
- glycan array binding signal (z-score) (Neu5Ac(a2-6)Gal(b1-4)Glc): -0.257
- glycan array binding signal (z-score) [25]: 0.519
- glycan array binding signal (z-score) [26]: -0.275
- glycan array binding signal (z-score) [27]: 0.365
- glycan array binding signal (z-score) [28]: -0.299
- glycan array binding signal (z-score) [29]: 0.602
- glycan array binding signal (z-score) [30]: 0.125
- glycan array binding signal (z-score) [31]: 0.186
- glycan array binding signal (z-score) [32]: -0.5
